Test results published in paper doi:10.1101/2023.03.08.531807.

The chains behind the UniProt entries cited, without tags or fusion partners.
UniProt Q80WG5: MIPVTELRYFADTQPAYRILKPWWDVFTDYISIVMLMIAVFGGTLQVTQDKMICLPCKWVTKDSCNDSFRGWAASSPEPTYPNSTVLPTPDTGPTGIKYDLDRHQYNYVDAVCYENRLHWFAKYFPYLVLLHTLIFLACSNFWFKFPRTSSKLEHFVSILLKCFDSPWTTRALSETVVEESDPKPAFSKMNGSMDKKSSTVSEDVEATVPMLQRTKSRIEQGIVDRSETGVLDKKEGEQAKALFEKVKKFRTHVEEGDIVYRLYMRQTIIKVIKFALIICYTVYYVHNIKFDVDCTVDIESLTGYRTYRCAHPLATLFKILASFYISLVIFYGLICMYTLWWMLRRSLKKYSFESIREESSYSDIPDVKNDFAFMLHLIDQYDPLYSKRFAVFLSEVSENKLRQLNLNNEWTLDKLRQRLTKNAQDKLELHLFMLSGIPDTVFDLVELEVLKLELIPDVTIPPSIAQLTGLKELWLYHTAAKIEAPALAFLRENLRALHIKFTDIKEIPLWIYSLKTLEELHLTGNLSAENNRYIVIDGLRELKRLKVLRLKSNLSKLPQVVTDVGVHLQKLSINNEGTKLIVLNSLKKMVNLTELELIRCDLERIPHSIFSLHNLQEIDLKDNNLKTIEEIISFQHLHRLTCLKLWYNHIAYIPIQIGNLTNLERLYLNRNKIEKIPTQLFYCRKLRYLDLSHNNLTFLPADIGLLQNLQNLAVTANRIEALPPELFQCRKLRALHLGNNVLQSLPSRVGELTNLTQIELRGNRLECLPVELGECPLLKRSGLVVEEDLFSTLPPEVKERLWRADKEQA
UniProt Q8BGR2: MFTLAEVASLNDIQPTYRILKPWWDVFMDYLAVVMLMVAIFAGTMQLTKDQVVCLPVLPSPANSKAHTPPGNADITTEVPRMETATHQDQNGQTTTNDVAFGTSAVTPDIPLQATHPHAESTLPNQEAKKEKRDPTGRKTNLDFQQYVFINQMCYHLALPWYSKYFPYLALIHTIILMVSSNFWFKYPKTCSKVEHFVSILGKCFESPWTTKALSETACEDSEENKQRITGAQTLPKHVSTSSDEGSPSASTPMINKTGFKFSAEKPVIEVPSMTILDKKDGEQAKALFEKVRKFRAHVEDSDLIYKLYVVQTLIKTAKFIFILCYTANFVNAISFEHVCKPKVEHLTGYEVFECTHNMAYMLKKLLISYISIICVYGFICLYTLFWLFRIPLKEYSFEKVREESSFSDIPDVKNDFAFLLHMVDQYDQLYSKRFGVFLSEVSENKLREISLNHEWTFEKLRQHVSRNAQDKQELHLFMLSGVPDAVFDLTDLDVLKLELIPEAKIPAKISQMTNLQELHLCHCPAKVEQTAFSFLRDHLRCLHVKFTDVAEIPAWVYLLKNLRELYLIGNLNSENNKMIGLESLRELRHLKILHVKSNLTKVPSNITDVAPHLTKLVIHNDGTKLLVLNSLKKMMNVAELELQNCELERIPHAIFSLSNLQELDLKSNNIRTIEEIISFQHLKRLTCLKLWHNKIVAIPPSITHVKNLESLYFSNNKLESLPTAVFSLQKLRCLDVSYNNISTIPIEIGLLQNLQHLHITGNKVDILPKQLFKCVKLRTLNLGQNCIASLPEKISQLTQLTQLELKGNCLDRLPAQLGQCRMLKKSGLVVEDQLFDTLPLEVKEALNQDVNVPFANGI
UniProt P97434: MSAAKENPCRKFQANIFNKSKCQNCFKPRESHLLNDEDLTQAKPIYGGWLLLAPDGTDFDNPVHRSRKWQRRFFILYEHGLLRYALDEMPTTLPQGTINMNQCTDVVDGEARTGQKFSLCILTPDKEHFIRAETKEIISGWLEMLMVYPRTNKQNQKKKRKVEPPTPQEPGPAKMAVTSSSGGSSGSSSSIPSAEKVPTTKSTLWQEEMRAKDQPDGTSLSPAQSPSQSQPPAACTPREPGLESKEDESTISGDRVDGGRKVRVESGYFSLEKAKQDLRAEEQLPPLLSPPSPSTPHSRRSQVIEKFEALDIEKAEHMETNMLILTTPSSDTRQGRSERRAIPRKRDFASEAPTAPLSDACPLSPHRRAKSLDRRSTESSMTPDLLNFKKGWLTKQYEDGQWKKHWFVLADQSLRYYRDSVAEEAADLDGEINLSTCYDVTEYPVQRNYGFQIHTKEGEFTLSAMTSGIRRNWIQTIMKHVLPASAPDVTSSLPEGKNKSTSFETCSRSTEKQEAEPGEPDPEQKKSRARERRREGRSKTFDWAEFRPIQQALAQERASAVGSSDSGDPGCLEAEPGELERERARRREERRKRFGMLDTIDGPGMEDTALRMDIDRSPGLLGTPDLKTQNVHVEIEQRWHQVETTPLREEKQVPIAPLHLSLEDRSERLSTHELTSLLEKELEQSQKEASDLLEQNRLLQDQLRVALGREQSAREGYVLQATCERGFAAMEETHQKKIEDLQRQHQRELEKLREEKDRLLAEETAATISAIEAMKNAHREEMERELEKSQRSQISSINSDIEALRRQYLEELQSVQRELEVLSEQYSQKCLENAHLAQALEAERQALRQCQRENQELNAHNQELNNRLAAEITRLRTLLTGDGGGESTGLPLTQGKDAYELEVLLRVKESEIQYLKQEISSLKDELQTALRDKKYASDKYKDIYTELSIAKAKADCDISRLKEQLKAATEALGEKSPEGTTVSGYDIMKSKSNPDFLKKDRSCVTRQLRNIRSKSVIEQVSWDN
UniProt Q9WTI7: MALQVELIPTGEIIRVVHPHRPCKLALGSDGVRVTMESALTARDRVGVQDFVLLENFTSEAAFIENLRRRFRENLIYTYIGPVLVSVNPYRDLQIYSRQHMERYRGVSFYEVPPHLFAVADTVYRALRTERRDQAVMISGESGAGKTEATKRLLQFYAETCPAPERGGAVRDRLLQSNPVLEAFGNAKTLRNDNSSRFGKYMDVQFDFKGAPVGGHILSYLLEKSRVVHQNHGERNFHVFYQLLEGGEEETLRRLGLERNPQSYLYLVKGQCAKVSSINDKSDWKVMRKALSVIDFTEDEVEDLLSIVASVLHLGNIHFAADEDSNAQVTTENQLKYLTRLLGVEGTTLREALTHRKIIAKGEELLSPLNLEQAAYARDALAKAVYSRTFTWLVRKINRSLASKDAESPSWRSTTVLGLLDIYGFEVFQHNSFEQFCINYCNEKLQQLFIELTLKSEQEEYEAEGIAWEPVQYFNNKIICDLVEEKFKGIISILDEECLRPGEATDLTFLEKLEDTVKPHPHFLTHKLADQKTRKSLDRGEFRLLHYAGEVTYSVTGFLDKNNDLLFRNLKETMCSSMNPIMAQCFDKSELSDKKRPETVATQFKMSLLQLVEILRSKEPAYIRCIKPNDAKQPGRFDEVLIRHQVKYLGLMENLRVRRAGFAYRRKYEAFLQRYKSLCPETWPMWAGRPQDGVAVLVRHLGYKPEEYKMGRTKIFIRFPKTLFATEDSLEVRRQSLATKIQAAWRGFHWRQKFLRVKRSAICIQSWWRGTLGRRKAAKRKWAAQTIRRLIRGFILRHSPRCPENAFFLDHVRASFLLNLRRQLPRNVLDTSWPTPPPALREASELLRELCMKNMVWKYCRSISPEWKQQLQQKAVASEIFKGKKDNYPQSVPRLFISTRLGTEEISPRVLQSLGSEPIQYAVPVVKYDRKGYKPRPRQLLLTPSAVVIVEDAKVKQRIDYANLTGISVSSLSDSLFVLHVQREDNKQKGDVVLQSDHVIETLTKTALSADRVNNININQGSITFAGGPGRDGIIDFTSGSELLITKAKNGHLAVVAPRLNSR

Assays:
[1] = target: LRRC8A (endogenous, vascular smooth muscle cells) (mouse (endogenous in VSMCs)) (UniProt Q80WG5); experiment: affinity purification with mass spectrometry
[2] = target: LRRC8A (endogenous, vascular smooth muscle cells) (mouse (endogenous in VSMCs)) (UniProt Q80WG5); experiment: affinity purification with mass spectrometry; remark: listed apart in the source

Molecule: LRRC8D (endogenous, vascular smooth muscle cells) (from UniProt Q8BGR2 1-859)
- binding [1]: binds

Molecule: Myosin Phosphatase Rho-Interacting Protein (MPRIP), endogenous in vascular smooth muscle cells (from UniProt P97434 1-1024)
- binding [1]: binds

Next, values leading:

- binding [1]: binds
Molecule: Myo1c (endogenous, vascular smooth muscle cells) (from UniProt Q9WTI7 1-1063)

- binding [2]: binds
B1: Myo1d (endogenous, vascular smooth muscle cells) (protein, UniProt Q5SYD0 1-1006)
chain: MAEQESLEFGKADFVLMDTVSMPEFMANLRLRFEKGRIYTFIGEVVVSVNPYKVLNIYGRDTVEQYKGRELYERPPHLFAIADAAYKAMKRRSKDTCIMISGESGAGKTEASKYIMQYIAAITNPSQRAEIERVKNMLLKSNCVLEAFGNAKTNRNDNSSRFGKYMDINFDFKGDPIGGHINNYLLEKSRVIVQQPGERSFHSFYQLLQGGSEQMLHSLHLQKSLSSYNYIRVGAQLKSSINDAAEFKVVADAMKVIGFKPEEIQTVYKILAVILHLGNLKFIVDGDTPLIENGKVVSVIAELLSTKADMVEKALLYRTVATGRDIIDKQHTEQEASYGRDAFAKAIYERLFCWIVTRINDIIEVKNYDTTIHGKNTVIGVLDIYGFEIFDNNSFEQFCINYCNEKLQQLFIQLVLKQEQEEYQREGIPWKHIDYFNNQIIVDLVEQQHKGIIAILDDACMNVGKVTDGMFLEALNSKLGKHGHFSSRKTCASDKILEFDRDFRIRHYAGDVVYSAIGFIDKNKDTLFQDFKRLMYNSSNPVLKNMWPEGKLSITEVTKRPLTAATLFKNSMIALVDNLASKEPYYVRCIKPNDKKSPQIFDDERCRHQVEYLGLLENVRVRRAGFAFRQTYEKFLHRYKMISEFTWPNHDLPSDKEAVKKLIERCGFQDDVAYGKSKIFIRTPRTLFTLEELRAQMLVRVVLFLQKVWRGTLARMRYKRTKAALTIIRYYRRYKVKSYIHEVARRFHGVKNMRDYGKHVKWPTPPKVLRRFEEALQSIFNRWRASQLIKTIPASDLPQVRAKVAAMEMLKGQRADLGLQRAWEGNYLASKPDTPQTSGTFVPVANELKRKDKYMNVLFSCHVRKVNRFSKVEDRAIFVTDRHLYKMDPTKQYKVMKTIPLYNLTGLSVSNGKDQLVVFHTKDNKDLIVCLFSKQPTHESRIGELVGVLVNHFKSEKRHLQVNVTNPVQCSLHGKKCTVSVETRLNQPQPDFTKNRSGFILSVPGN

Where two headings read alike, the source gives them in different places. Results are given in words; binding and its absence hold for the method and conditions named. Binding seen in cells or lysates may run through a third protein. A yes stands for co-enrichment or nearness to the bait. Other partners may have been found. Each block holds one molecule with its values, some of them ahead of it.
